PubChem BioAssay AID743121 | NCATS | 2013
The deposit covers about 26,000 reagents; shown is a part drawn at random. 167 of all reagents (0.63%) count as active. 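Calls are per gene from RSA p-values that are not deposited; an individual active-marked siRNA can sensitise only weakly.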 The numbers tell different reagents against one gene apart.

Test: 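Partners whose loss is lethal together with topoisomerase I blockade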 (primary screen)
System: MDA-MB-231 cells, a human breast cancer line
Reagents: single siRNA against human genes, 20 nM siRNA (0.8 pmol per well)
Time to read-out: 120 h (drug added 48 h after transfection, read 72 h later)
Conditions: camptothecin 20 nM (about EC30) for 72 h; vehicle 0.1% DMSO in parallel plates
Read-out: 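CellTiter-Glo ATP signal, scaled to control siRNA as percent viability; sensitisation given as log2 of untreated divided by camptothecin-treated viability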
Direction: log2 vehicle/camptothecin viability: higher = stronger sensitisation to camptothecin; viability with camptothecin and viability without drug: higher = more viable cells
Call rule: 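Each gene scored by redundant siRNA activity (RSA) over its individual siRNA ratios; a gene is called active at p < 0.001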

| Target gene | siRNA no. | log2 vehicle/camptothecin viability | viability with camptothecin (% of control) | viability without drug (% of control) | call |
| --- | --- | --- | --- | --- | --- |
| LARGE1 (LARGE xylosyl- and glucuronyltransferase 1) | 1 | -0.0802 | 59.4 | 56.2 | inactive |
| LARGE1 (LARGE xylosyl- and glucuronyltransferase 1) | 2 | 0.0875 | 93.3 | 99.1 | inactive |
| LARGE1 (LARGE xylosyl- and glucuronyltransferase 1) | 3 | -0.549 | 56.3 | 38.5 | inactive |
| COL8A2 (collagen type VIII alpha 2 chain) | 1 | -0.45 | 63.2 | 46.3 | inactive |
| COL8A2 (collagen type VIII alpha 2 chain) | 2 | -0.264 | 54.8 | 45.6 | inactive |
| COL8A2 (collagen type VIII alpha 2 chain) | 3 | 0.989 | 22 | 43.6 | inactive |
| COL8A2 (collagen type VIII alpha 2 chain) | 4 | -0.173 | 107 | 95.1 | inactive |
| USP31 (ubiquitin specific peptidase 31) | 1 | -0.345 | 96.9 | 76.3 | inactive |
| USP31 (ubiquitin specific peptidase 31) | 2 | -0.109 | 96 | 89 | inactive |
| USP31 (ubiquitin specific peptidase 31) | 3 | -0.418 | 54.4 | 40.7 | inactive |
| USP31 (ubiquitin specific peptidase 31) | 4 | 0.585 | 25.2 | 37.8 | inactive |
| IBTK (inhibitor of Bruton tyrosine kinase) | 1 | 0.287 | 18.3 | 22.4 | inactive |
| IBTK (inhibitor of Bruton tyrosine kinase) | 2 | -0.0234 | 97.8 | 96.2 | inactive |
| IBTK (inhibitor of Bruton tyrosine kinase) | 3 | -0.0942 | 71.5 | 67 | inactive |
| IBTK (inhibitor of Bruton tyrosine kinase) | 4 | -0.258 | 89.7 | 75 | inactive |

4 of these entries, reformatted.
{"Target gene": "USP31 (ubiquitin specific peptidase 31)", "siRNA no.": 1, "log2 vehicle/camptothecin viability": -0.345, "viability with camptothecin (% of control)": 96.9, "viability without drug (% of control)": 76.3, "call": "inactive"}
{"Target gene": "USP31 (ubiquitin specific peptidase 31)", "siRNA no.": 2, "log2 vehicle/camptothecin viability": -0.109, "viability with camptothecin (% of control)": 96, "viability without drug (% of control)": 89, "call": "inactive"}
{"Target gene": "USP31 (ubiquitin specific peptidase 31)", "siRNA no.": 3, "log2 vehicle/camptothecin viability": -0.418, "viability with camptothecin (% of control)": 54.4, "viability without drug (% of control)": 40.7, "call": "inactive"}
{"Target gene": "USP31 (ubiquitin specific peptidase 31)", "siRNA no.": 4, "log2 vehicle/camptothecin viability": 0.585, "viability with camptothecin (% of control)": 25.2, "viability without drug (% of control)": 37.8, "call": "inactive"}

The results go on.
| Target gene | siRNA no. | log2 vehicle/camptothecin viability | viability with camptothecin (% of control) | viability without drug (% of control) | call |
| --- | --- | --- | --- | --- | --- |
| THEM4 (thioesterase superfamily member 4) | 1 | -0.219 | 113 | 96.8 | inactive |
| THEM4 (thioesterase superfamily member 4) | 2 | -0.307 | 91.9 | 74.2 | inactive |
| THEM4 (thioesterase superfamily member 4) | 3 | -0.189 | 88.4 | 77.5 | inactive |
| THEM4 (thioesterase superfamily member 4) | 4 | -0.0694 | 106 | 101 | inactive |
| REV1 (REV1 DNA directed polymerase) | 1 | -0.0958 | 102 | 95.3 | inactive |
| REV1 (REV1 DNA directed polymerase) | 2 | 0.481 | 40.9 | 57 | inactive |
| REV1 (REV1 DNA directed polymerase) | 3 | 0.0264 | 56.1 | 57.1 | inactive |
| DNAJA1 (DnaJ heat shock protein family (Hsp40) member A1) | 1 | -0.353 | 68.6 | 53.7 | inactive |
| DNAJA1 (DnaJ heat shock protein family (Hsp40) member A1) | 2 | -0.104 | 98.8 | 91.9 | inactive |
| DNAJA1 (DnaJ heat shock protein family (Hsp40) member A1) | 3 | 0.305 | 92.1 | 114 | inactive |
| DNAJA1 (DnaJ heat shock protein family (Hsp40) member A1) | 4 | -0.0432 | 80.2 | 77.8 | inactive |
| BCAT2 (branched chain amino acid transaminase 2) | 1 | 0 | 106 | 106 | inactive |
| BCAT2 (branched chain amino acid transaminase 2) | 2 | 0.128 | 111 | 121 | inactive |
| BCAT2 (branched chain amino acid transaminase 2) | 3 | -0.524 | 74.9 | 52.1 | inactive |
